Publication PMC5724004

Biological target: T1, breakpoint cluster region (BCR) (rat (endogenous in cultured hippocampal and cortical neurons)) (UniProt F1LXF1)
T1 sequence: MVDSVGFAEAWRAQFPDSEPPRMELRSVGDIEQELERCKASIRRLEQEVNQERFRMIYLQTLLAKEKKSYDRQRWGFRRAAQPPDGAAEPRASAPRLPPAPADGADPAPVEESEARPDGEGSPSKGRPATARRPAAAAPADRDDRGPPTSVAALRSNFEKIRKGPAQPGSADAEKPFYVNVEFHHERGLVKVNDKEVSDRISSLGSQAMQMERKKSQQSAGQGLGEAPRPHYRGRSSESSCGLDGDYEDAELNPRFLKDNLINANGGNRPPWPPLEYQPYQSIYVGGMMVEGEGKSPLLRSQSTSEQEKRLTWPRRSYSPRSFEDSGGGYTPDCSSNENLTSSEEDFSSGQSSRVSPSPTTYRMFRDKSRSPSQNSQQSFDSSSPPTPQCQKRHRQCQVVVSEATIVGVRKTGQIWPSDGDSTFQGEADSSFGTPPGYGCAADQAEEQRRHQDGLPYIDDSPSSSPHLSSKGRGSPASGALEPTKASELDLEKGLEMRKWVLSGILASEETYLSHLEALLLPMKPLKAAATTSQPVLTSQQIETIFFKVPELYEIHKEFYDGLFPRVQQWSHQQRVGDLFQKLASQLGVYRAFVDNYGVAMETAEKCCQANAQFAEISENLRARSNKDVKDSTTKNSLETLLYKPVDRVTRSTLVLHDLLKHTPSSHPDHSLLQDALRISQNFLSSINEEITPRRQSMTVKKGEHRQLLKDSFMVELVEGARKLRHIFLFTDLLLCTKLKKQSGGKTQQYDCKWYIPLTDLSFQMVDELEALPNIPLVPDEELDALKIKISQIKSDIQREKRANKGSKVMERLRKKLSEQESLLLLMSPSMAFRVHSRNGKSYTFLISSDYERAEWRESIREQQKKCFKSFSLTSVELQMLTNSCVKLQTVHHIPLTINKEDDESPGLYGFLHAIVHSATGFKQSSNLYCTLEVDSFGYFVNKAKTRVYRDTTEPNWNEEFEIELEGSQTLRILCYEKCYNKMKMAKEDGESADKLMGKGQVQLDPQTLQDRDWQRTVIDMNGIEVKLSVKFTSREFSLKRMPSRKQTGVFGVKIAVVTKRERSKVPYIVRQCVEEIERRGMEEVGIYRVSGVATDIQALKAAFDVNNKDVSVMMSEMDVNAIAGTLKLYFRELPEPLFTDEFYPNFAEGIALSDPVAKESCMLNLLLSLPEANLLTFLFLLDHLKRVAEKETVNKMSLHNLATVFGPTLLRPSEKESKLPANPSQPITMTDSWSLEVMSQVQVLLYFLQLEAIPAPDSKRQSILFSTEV
Assay: co-IP; lysate of cultured rat hippocampal or cortical neurons (50 mM Tris pH 7.5, 1% Triton X-100, 150 mM NaCl, 1 mM EDTA), 2 μg antibody 2 h at 4 °C, protein G beads, Western blot; control conditions or OGD

In the case of Tiam1, the binding is reported as “binds”.

Results are given in words; binding and its absence hold for the method and conditions named. Binding seen in cells or lysates may run through a third protein. Binding can be weak; no strength is given.
